Measured values published in PubChem BioAssay AID504444 (National Center for Advancing Translational Sciences (NCATS), 2011).
The whole screen tested about 360,000 compounds, of which about 7,500 (2.1%) were called active. The inconclusive results got no clear call from the source; some entries with a clear call stand among them for comparison. The call rests on the fitted dose curve; in most records, active means well fitted inhibition curve with a large enough effect; inconclusive means small, poorly fitted or top-dose-only effect, or effect the other way; inactive means flat fitted curve, though single readings scatter. Potencies of inconclusive entries are doubtful fits and often do not repeat.

Assay: Nrf2 qHTS screen for inhibitors; further: nearly all actives have a fitted effect of over 60% in size
Conditions: A549 ARE-Fluc reporter, luciferase luminescence, 18-24 h; activity change, negative = inhibition: at 46 µM (top of the series)
Outline: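 In this cell-based qHTS, ARE-driven firefly luciferase in A549 cells reports Nrf2 activity; the luminescent signal after BugLite lysis is the measured value, with a prior CellTiter-Fluor read for cell health.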
On the % scale 0 is the no-effect control and ±100 the full control effect; potency means the concentration at half of the fitted maximal effect.

Compound	Potency	activity change, negative = inhibition
O=C(CSc1ccccn1)Nc1ccc(NC(=O)CSc2ccccn2)cc1	inconclusive: 1.46 µM [falling, full curve, poor fit]	
O=C1/C(=C/c2ccc(O)cc2)SC(=S)N1Cc1cccnc1		inactive: -6.35%
Cn1c(=O)cc(OCCCC(=O)N2CCCCC2)c2ccccc21	inconclusive: 16.4 µM [falling, partial curve, poor fit]	
OCc1ccc(-c2nn(Cc3ccccc3)c3ccccc23)o1		inactive: 2.49%
COc1cnc(-c2ccccn2)nc1Oc1ccc(C(C)(C)C)cc1	inconclusive: 23.1 µM [falling, single point]	
Cc1cc(C(=O)N2CCN(C(c3ccccc3)c3ccccc3)CC2)no1	inconclusive: 2.59 µM [activator, partial curve]	
CCc1ccc(NC(=O)C2CCN(C(=O)N3CC(CC)Oc4ccccc43)CC2)cc1 (centres undefined)		inactive: -17%
C=CCn1c(C)cc(C(=O)COc2nncc3ccccc23)c1C	inconclusive: 1.3 µM [activator, full curve]	
O=C(COC(=O)c1n[nH]c2ccccc12)Nc1ccccc1Br	inconclusive: 3.66 µM [activator, partial curve, poor fit]	
CCCCC(=O)Nc1ccc(C(=O)c2ccccc2)cc1	inconclusive: 29.1 µM [activator, single point]	
CCn1c(SCC(=O)Nc2ccc(OC)c(OC)c2)nnc1-c1c[nH]c2ccccc12	inconclusive: 20.6 µM [falling, single point]	
O=C(Cc1cccs1)N1CCN(c2ccc([N+](=O)[O-])cc2)CC1	inconclusive: 23.1 µM [falling, single point]	
O=c1[nH]nc(SCc2nc3ccccc3s2)n1C1CC1	inconclusive: 20.6 µM [activator, single point]	
Cc1ccc(CNC(=O)C(=O)NCC2OCCN2S(=O)(=O)c2ccc(C)cc2)cc1 (centres undefined)		inactive: -12.3%
Cc1ccc(S(=O)(=O)c2nnn3c2nc(N2CCN(c4ccc(F)cc4)CC2)c2cc(Cl)ccc23)cc1C		inactive: 12%
Clc1ccc(-c2nc(-c3cnccn3)no2)cc1	inconclusive: 20.6 µM [activator, single point]	
CCOc1cc(S(=O)(=O)Nc2ccncc2)ccc1F	inconclusive: 7.31 µM [falling, partial curve, poor fit]	
Cc1ccc(NC(=O)CN(C)C(=O)CSc2nc3ccccc3c(=O)n2CCO)cc1	inconclusive: 0.116 µM [falling, partial curve, poor fit]	
CN1C(=O)C(C)(C)c2cc(S(=O)(=O)N3CCCC(C(=O)Nc4ccc(Cl)cc4)C3)ccc21 (centres undefined)	inconclusive: 29.1 µM [falling, single point]	
CCCCC(=O)Nc1ccc(C(=O)NNC(=S)NC(=O)c2cccs2)cc1	inconclusive: 16.4 µM [falling, partial curve]	
COC(=O)c1ccc(CSC2=NC[C@@H]3[C@@H]4C(=O)N(Cc5ccccc5)C(=O)[C@@H]4[C@](C)(C(=O)OC)N23)cc1		inactive: 8.23%
O=C(CSC1=NNC(c2ccccn2)S1)Nc1ccccc1 (centres undefined)	inconclusive: 32.6 µM [falling, single point]	

3 compounds picked at random from those above, as already listed:
Compound	Potency	activity change, negative = inhibition
Cn1c(=O)cc(OCCCC(=O)N2CCCCC2)c2ccccc21	inconclusive: 16.4 µM [falling, partial curve, poor fit]	
CN1C(=O)C(C)(C)c2cc(S(=O)(=O)N3CCCC(C(=O)Nc4ccc(Cl)cc4)C3)ccc21 (centres undefined)	inconclusive: 29.1 µM [falling, single point]	
O=C1/C(=C/c2ccc(O)cc2)SC(=S)N1Cc1cccnc1		inactive: -6.35%

(more compounds)

Compound	Potency	activity change, negative = inhibition
CCOc1cc(/C=N/NC(=O)c2ccc(O)cc2)ccc1Oc1nc(Cl)ncc1F		inactive: 0.244%
Cc1cccc(NC(=O)c2ccc(N3C(=O)C4C5C=CC(C6CC56)C4C3=O)cc2)c1 (centres undefined)	inconclusive: 0.58 µM [falling, full curve]	
CC1CN(S(=O)(=O)c2cccc(-c3cn4ccccc4n3)c2)CC(C)O1 (centres undefined)	inconclusive: 29.1 µM [falling, single point]	
O=S(=O)(c1ccc(Cl)s1)N1CCc2ccccc2C1	inconclusive: 29.1 µM [activator, single point]	
O=C(Nc1cnc2ccccc2c1)c1ccco1	inconclusive: 2.06 µM [activator, full curve]	
COc1ccc(C(=O)Nc2ccc3oc(-c4cccc(Cl)c4)cc(=O)c3c2O)cc1	inconclusive: 29.1 µM [falling, partial curve, poor fit]	
O=C(NCC(c1cccnc1)N1CCN(c2ccc(F)cc2)CC1)c1ccccc1 (centres undefined)		inactive: -6.28%
CCOC(=O)Cn1c(CN2CCc3ccccc3C2)nc2c1c(=O)n(C)c(=O)n2C	inconclusive: 23.1 µM [falling, single point]	
CC(C)(C)c1csc(NC(=O)C2COc3ccccc3O2)n1 (centres undefined)	inconclusive: 8.2 µM [activator, partial curve]	
CC(C)(CO)CNC(=O)c1ccc(OC2CCN(C(=O)C3CC3)CC2)cc1		inactive: 13.3%
CCc1ccc(-c2nn(CC(=O)NC3CCCC3)c3c2cnc2ccc(F)cc23)cc1	inconclusive: 32.6 µM [activator, single point]	
CC1CCCCC1NC(=O)CN1C(=O)c2cccc(N)c2C1=O (centres undefined)		inactive: 2%
COc1ccc(-c2nc(-c3ccccc3)c(-c3ccc(O)cc3)[nH]2)cc1	inconclusive: 10.3 µM [falling, partial curve, poor fit]	
O=C(Nc1cccc(OC(F)(F)F)c1)c1ccc(Br)o1	inconclusive: 23.1 µM [falling, partial curve, poor fit]	
CC1CCc2[nH]c3ccc(C(=O)N(C)CC(=O)Nc4ccccc4C(F)(F)F)cc3c2C1 (centres undefined)	inconclusive: 20.6 µM [falling, single point]	
Cc1cc(C)c(S(=O)(=O)/N=C2/C=C(Sc3ncn[nH]3)C(=O)c3ccccc32)cc1C	inconclusive: 29.1 µM [falling, single point]	
CC1=CC(C)(C)Nc2ccc(OC(=O)c3ccco3)cc21	inconclusive: 5.17 µM [falling, partial curve, poor fit]	
CC(=O)Nc1ccc(NC(=O)C(C)OC(=O)C2(c3ccc(F)cc3)CCCC2)cc1 (centres undefined)	inconclusive: 29.1 µM [falling, single point]	
CC(C)CC(=O)N1CCN(c2ccc([N+](=O)[O-])c(NCc3ccccc3)c2)CC1	inconclusive: 18.4 µM [falling, single point]	
CCOC(=O)c1nn(-c2ccc(Cl)cc2)c2nc(CC)c(C#N)c(=O)n12	inconclusive: 0.731 µM [falling, full curve]	
COc1ccccc1C(=O)NCCn1cc(SCc2ccccc2Cl)c2ccccc21	inconclusive: 20.6 µM [falling, single point]	
COc1ccccc1C(=O)Nc1nc(-c2ccccc2)ns1	inconclusive: 16.4 µM [activator, partial curve]	

Compound	Potency	activity change, negative = inhibition
Cc1cc2c(N3CCCCC3C)ncnc2s1 (centres undefined)	active: 20.6 µM	
COc1ccc(NC(=O)CN(c2c(C)cccc2C)S(C)(=O)=O)cc1		inactive: 4.66%
C/C(=N\NC(=O)C1CCCN(S(=O)(=O)c2ccccc2)C1)c1ccccn1 (centres undefined)	active: 11.6 µM	
Cc1nn(-c2ccccc2)c(C)c1C(=O)OC(C)C(=O)NC1CCCCC1C (centres undefined)	inconclusive: 9.2 µM [falling, partial curve]	
Cc1ccc(S(=O)(=O)N2CCCC(NC(=O)N3CCN(c4ccccc4)CC3)C2)cc1 (centres undefined)	inconclusive: 0.013 µM [falling, full curve, poor fit]	
COC(=O)c1ccccc1NC(=O)c1ccc(Cn2cc(Cl)cn2)o1	inconclusive: 3.26 µM [falling, partial curve, poor fit]	
CC(C)c1ccc(C(=O)NCCCc2ccccc2)cc1	inconclusive: 18.4 µM [activator, partial curve]	
COc1ccc(C(=O)n2nc(-c3ccco3)nc2NCc2cccs2)cc1	inconclusive: 25.9 µM [falling, single point]	
COc1ccc(-c2nc(C(=O)NCC3CCCO3)cc3c2[nH]c2ccccc23)cc1 (centres undefined)	inconclusive: 18.4 µM [falling, single point]	
CCc1ccc(-n2c(=O)c3ccccc3n(CC(=O)C(C)(C)C)c2=O)cc1	inconclusive: 23.1 µM [falling, partial curve]	
CCOC(=O)Cn1c(S(=O)(=O)Cc2ccccc2)nc2ccccc21	inconclusive: 4.11 µM [falling, partial curve, poor fit]	
COc1ccccc1C(=O)N/C(=N/c1nc(C)cc(C)n1)Nc1ccccc1	inconclusive: 18.4 µM [falling, single point]	
CC(C)Cn1c2c(c(O)c(C(=O)Nn3c(Cc4ccccc4)nc4ccccc4c3=O)c1=O)CCCC2	inconclusive: 4.11 µM [falling, full curve, poor fit]	
CC(=O)Nc1ccc(SCC(c2ccccc2)N2CCN(C)CCC2=O)cc1 (centres undefined)	inconclusive: 20.6 µM [activator, partial curve, poor fit]	
Cc1noc(/C=C/c2ccco2)c1S(=O)(=O)N1CCC(C(=O)Nc2ccc(F)c(Cl)c2)CC1	inconclusive: 29.1 µM [falling, single point]	
C/C(=N\NC(=O)c1ccc(OC2OCCOC2Oc2ccc(C(=O)N/N=C(\C)c3ccncc3)cc2)cc1)c1ccncc1 (centres undefined)	inconclusive: 29.1 µM [falling, single point]	
CCn1c(=O)c(C(=O)NNS(=O)(=O)c2ccc(C)cc2)c(O)c2ccccc21	active: 14.6 µM	
O=C(Nc1ncc(Cc2cc(Cl)ccc2Cl)s1)c1ccc([N+](=O)[O-])cc1	inconclusive: 16.4 µM [falling, single point]	
O=C(CSc1cccc[n+]1[O-])Nc1ccc2c(c1)OCCO2	inconclusive: 7.31 µM [activator, partial curve]	
Cc1ccccc1-c1nc(CS(=O)(=O)CC(=O)NCc2cccc(Cl)c2)c(C)o1	inconclusive: 29.1 µM [falling, single point]	
